# Drug screen on melanoma cell lines: apoptosis marker

Source: doi:10.1371/journal.pone.0140310, primary screening data, rounded.

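The test systems are human melanoma cell lines, treated with two drugs together for 72 h and then stained and imaged. Each value is the cleaved-PARP-positive fraction of nuclei relative to DMSO-treated wells, in %, so that 100 equals the control and higher values mean more apoptosis. Concentrations were fixed for each drug; these are the higher of two levels. These are primary screening values without error estimates. The marker varies much from line to line, for technical or biological reasons.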 Only some of the drugs and lines screened are listed, without regard to their results. An entry leaves out what has no value listed here. A dash means that no value is listed here.

Drugs:
lapatinib: CS(=O)(=O)CCNCc1ccc(-c2ccc3ncnc(Nc4ccc(OCc5cccc(F)c5)c(Cl)c4)c3c2)o1 at 4 µM
decitabine: Nc1ncn([C@H]2C[C@H](O)[C@@H](CO)O2)c(=O)n1 at 0.5 µM
FH535: Cc1cc([N+](=O)[O-])ccc1NS(=O)(=O)c1cc(Cl)ccc1Cl at 5 µM
dasatinib: Cc1nc(Nc2ncc(C(=O)Nc3c(C)cccc3Cl)s2)cc(N2CCN(CCO)CC2)n1 at 0.02 µM
AS-252424: O=C1NC(=O)/C(=C/c2ccc(-c3ccc(F)cc3O)o2)S1 at 5 µM
GW9662: O=C(Nc1ccccc1)c1cc([N+](=O)[O-])ccc1Cl at 10 µM
vatalanib: Clc1ccc(Nc2nnc(Cc3ccncc3)c3ccccc23)cc1 at 10 µM
tamatinib: COc1cc(Nc2ncc(F)c(Nc3ccc4c(n3)NC(=O)C(C)(C)O4)n2)cc(OC)c1OC at 2 µM

Results for AS-252424 + GW9662 are WM3619: 195; MeWo: 75.1; 501mel: 114; SK-MEL-5: 173; WM451Lu: 113. Results for decitabine + GW9662 are WM3619: 139; MeWo: 212; 501mel: 76.6; SK-MEL-5: 220; WM451Lu: 127. With decitabine + FH535 the screen read WM3619: 102; MeWo: 88.1; 501mel: 176; SK-MEL-5: 317; WM451Lu: 143. Results for AS-252424 + tamatinib are WM3619: 173; MeWo: 128; 501mel: 69.0; SK-MEL-5: 75.9; WM451Lu: 160.

With tamatinib + FH535 the screen read WM3619: 261; MeWo: 108; 501mel: 70.1; SK-MEL-5: 285; WM451Lu: 47.1. For decitabine + vatalanib the values were WM3619: 228; MeWo: 156; SK-MEL-5: 251; WM451Lu: 120. For FH535 + GW9662 the values were WM3619: 180; MeWo: 79.8; SK-MEL-5: 303; WM451Lu: 74.6. Results for dasatinib + AS-252424 are WM3619: 146; MeWo: 91.3; 501mel: 57.5; SK-MEL-5: 154; WM451Lu: 51.4.

With AS-252424 + lapatinib the screen read WM3619: 119; MeWo: 83.5; 501mel: 38.3; SK-MEL-5: 325; WM451Lu: 92.6. Results for decitabine + lapatinib are WM3619: 132; MeWo: 121; SK-MEL-5: 297; WM451Lu: 123. For vatalanib + FH535 the values were WM3619: 171; MeWo: 133; 501mel: 53.4; SK-MEL-5: 144; WM451Lu: 24.7. For FH535 + AS-252424 the values were WM3619: 116; MeWo: 79.3; SK-MEL-5: 295; WM451Lu: 78.4.

With dasatinib + vatalanib the screen read WM3619: 163; MeWo: 86.7; SK-MEL-5: 262; WM451Lu: 131. For GW9662 + dasatinib the values were WM3619: 243; MeWo: 81.0; 501mel: 381; SK-MEL-5: 169; WM451Lu: 271. With dasatinib + FH535 the screen read WM3619: 142; MeWo: 19.7; 501mel: 58.1; SK-MEL-5: 146; WM451Lu: 190. For GW9662 + tamatinib the values were WM3619: 246; MeWo: 209; 501mel: 88.5; SK-MEL-5: 242; WM451Lu: 163.

vatalanib + GW9662 gave WM3619: 211; MeWo: 196; 501mel: 134; SK-MEL-5: 200; WM451Lu: 111. With dasatinib + decitabine the screen read WM3619: 86.4; MeWo: 147; SK-MEL-5: 44.7; WM451Lu: 152. Results for lapatinib + tamatinib are WM3619: 240; MeWo: 138; SK-MEL-5: 271; WM451Lu: 71.2. GW9662 + lapatinib gave WM3619: 164; MeWo: 141; 501mel: 261; SK-MEL-5: 190; WM451Lu: 202.

For dasatinib + lapatinib the values were WM3619: 132; MeWo: 66.5; SK-MEL-5: 191; WM451Lu: 187. Results for vatalanib + tamatinib are WM3619: 162; MeWo: 89.4; SK-MEL-5: 239; WM451Lu: 138.

For reference, 2 entries once more:

Pair	WM3619	MeWo	501mel	SK-MEL-5	WM451Lu
FH535 + AS-252424	116	79.3	-	295	78.4
lapatinib + tamatinib	240	138	-	271	71.2